Here are results for 68 sequences from PubChem BioAssay AID1508600 (Functional Genomics Laboratory (NCATS/FGL), 2020).

Hit rate of the full screen: of about 53,000 sequences, about 3,700 (7%) were called active.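 Rule for the calls: active = gene knockdowns whose robust z-score for IL-1 alpha signal is at least 2 or at most -2, so actives lie on both sides; inactive = the rest.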 Some of the results follow.

This test is described as follows: Components of the Cytosolic LPS Sensing Pathway: Gene Identification via Genome-wide siRNA Screen.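 Note: robust z of the log signal after scaling to non-targeting control siRNA wells of the plate.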 The settings on record: RAW264.7 macrophages, IL-1a HTRF, actives lie on both sides, screened at 100 nM (by protocol), cells primed 5 h with Pam3CSK4 first. The method, boiled down:
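Using IL-1a HTRF as read-out, the screen measured release from RAW264.7 cells after 48h siRNA knockdown (100 nM), 5 h Pam3CSK4 priming and 24 h cytosolic LipidA. Values were expressed relative to negative-control wells as robust z-scores.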
On the technique in general: TR-FRET usually uses a lanthanide donor and a delayed reading to cut background.
In the case of GGAAAAUCUACUGUUUCCCTT against Flacc1, the z-score was inactive: 0.244. For GCCAUAGCUAUUGUCAUUCTT against Mmp16, the z-score is inactive: 0.441. On to GGACAUCAAAGAAAAGUCATT against Gpr171, for which the z-score is inactive: 0.955. Turning to CGAUGUAAGGAAAGAAAGGTT against Cd14, the z-score was inactive: -1.47. Consider CAGCAAUGACCUGAUGUUATT against Klk1b21, for which the z-score is inactive: -0.776. On to “GGCGAACAGAGAGAGUUAGTT against 4921524J17Rik”, for which the z-score was inactive: 0.677.

As for GGGCAUAUGAGAUUUAUUATT against Trappc2, the z-score was inactive: -0.423. Turning to GGAGAUAAAAUUAUUCAGGTT against Erbin, the z-score was inactive: -0.631. Regarding CCUUUAAACUUCAAGAAGCTT against Btk, the z-score was inactive: -0.664. With GGUAGUUCUGAAAAAGAAGTT against Slc7a11, the z-score is inactive: 0.241. In the case of GGGCAUCUACUUUAAACUCTT against Mgat3 it was inactive: 0.0561; in that of GGAAAUCAGGAGUAAAAGUTT against Eif2ak2, inactive: 0.0157. On to CCAUUAUAACACCUAUGCATT against Fgf7, for which the z-score is inactive: -0.558. In the case of GCAGAAGUCUCGUAUCCAGTT against Arl6ip4 it was inactive: 0.337. As to GGGCUUUUAUAACAAAUGUTT against Zfand6, the z-score was inactive: -0.196. Turning to CGGAUUCCUAAAAGUUAUATT against Nae1, the z-score is inactive: 0.873. For the sequence GGAAAUGUUUCUGUUCAUUTT against Nipsnap3b, the z-score was inactive: 0.295. Take GCUCUCCUGUUACUUAUAUTT against Maoa: the z-score was inactive: 1.2. On to GGCUAUGUGUUGGAGUUCUTT against Mybph, for which the z-score was inactive: 0.757. Regarding GCUAUUAUUGUACGUGCAATT against Adgre1, the z-score was inactive: 0.195. As for “CCAAGAAAGACAGUAACUATT against 4930432K21Rik”, the z-score is inactive: -0.986. In the case of GGAUGUGAACCUAAGUACUTT against Nup107 it was inactive: -0.751; in that of GCAGAUAUUUUUGUAAGCATT against Csmd1, inactive: -0.644. In the case of GGAGAUAAAGCUGACACUGTT against Zc3h18, the z-score was inactive: -0.38. With “GGCCUUUAAGAGUUUCCAUTT against A230052G05Rik”, the z-score was active: 2.1. As to GCAUUAAAGGAGUCCGAAUTT against Cpn1, the z-score is inactive: -0.328. With GGACUUGAUUAUCUACACUTT against Stk24, the z-score is active: -2.24. Take GCUGUACGUUUGCACAUUCTT against Rc3h1: the z-score was active: -2.87. Consider GCGAUUCAUAACACCAUUGTT against Pole3, for which the z-score was inactive: -1.43. For CCUAGAUUAAAUACUCGGATT against Saxo2, the z-score is inactive: 1.45. As to GGCAAUCAGCUUCACUGUGTT against Klk7, the z-score was inactive: -0.446.

For GCAAAAUUCCUAGCCGUUUTT against Igf2bp2, the z-score is inactive: -0.34. As to GGUGUUCUCGGUUUGAUCCTT against Ppm1k, the z-score is inactive: -1.01. In the case of GGAAAGGACAUUGUUGUUCTT against Psma7 it was inactive: -0.934; in that of CCUCAUCUAUGCAUGUUGUTT against Olfr1394, inactive: -1.86; in that of GGUUAAAAUGUCAUCCUUUTT against Trerf1, inactive: -0.0853. Turning to GGGAUAUGACAGAACCAUATT against Olfr1390, the z-score was inactive: 0.0369. As for CCUUCCUAAUGAUUGCCAATT against Grm7, the z-score was inactive: -0.755. As for CCAAUUUUCAAGAUCGGUCTT against Pakap, the z-score is inactive: 0.347. With GGAUGAACCCAGAAAGAUGTT against Gdf5, the z-score is inactive: 0.584. In the case of UACUCGUGGUGUUUGCAAGTT against Olfr1154 it was inactive: 0.873; in that of GCACAGUACCAUAACGGCUTT against Nampt, active: -2.06; in that of GGACUCUCAACUUCCAAUGTT against Spire2, inactive: 0.743. Turning to GCAACUAUUGUCUAAAUGCTT against Prpf40a, the z-score is inactive: -0.611. Consider GGAGAGUGAGAAGAUCUUGTT against Ecel1, for which the z-score was inactive: -0.163. In the case of CGGAGUCCAACCCAUAAAUTT against Blzf1 it was inactive: 0.184. In the case of CAGAAUUCAGAUAAUCUUGTT against Defb22 it was inactive: 1.06; in that of GCAUGAAUGUUCUGAGUUCTT against Sh3bgrl, inactive: 0.593; in that of GCGAUGACCAAAAAUAUUGTT against Tmc1, inactive: -0.0131.

For GCCUUUAAUUUUGACAACUTT against Vmn1r211, the z-score was inactive: 1.24.

Turning to GGAGAUCAAAGAAUCUUGGTT against Arhgap45, the z-score was active: -4.45. As to GGUUCUGGAAGGACAGGAATT against Samd14, the z-score was inactive: 0.064. In the case of GGUGUCCAUGCUAGCUGUATT against Best2 it was active: 2.97; in that of CGCUAUGAGGCAGCUAAUUTT against Psma6, active: -2.27; in that of GGGCUCUCAAUAUUACCUCTT against Car11, inactive: -1.38. As to GCUUUUCACAUGAUGUGUUTT against Klrb1a, the z-score is inactive: -0.5. In the case of GCCUGCUUAUAUAGGGUGUTT against Tmed9 it was inactive: -1.83; in that of GGUCGCUACAAGAUGACUUTT against Hapln4, inactive: 0.289; in that of “CCACUUCCUUACGAUUGAUTT against Aadacl4fm1”, active: -2.09. In the case of GGUGACUCUACUGGAUUUUTT against Coq8b it was inactive: -0.395. GGCUGACAGAAGGAUGCUCTT against Rps27: the z-score was inactive: 0.213. On to CCCUACUGAGAUCUUAGAUTT against Pole, for which the z-score was inactive: -0.0438. Take GGCUCAAAACAGCAAGAUCTT against Angptl4: the z-score was inactive: -0.0982.

As to GCUCAACACUCGACAUUGUTT against Rrm1, the z-score was active: -2.56. Turning to GGUACAGAAAAUCUCUAUGTT against Ccdc96, the z-score is inactive: 0.59. Consider GGCUGUUGAACUUAAUCCCTT against Tomm70a, for which the z-score is active: -2.25. In the case of GGAUGCUUACUUACCUCAUTT against Tas2r107 it was inactive: -1.06; in that of “GCAAGACUCAGAGAGGUGGTT against A730020M07Rik”, inactive: -1.34.
